Data published in publication PMC11218372.
These are yes or no findings as the source states them, for the method shown.

Target: CA6-SazCAtrunc, carbonic anhydrase from Sulfurihydrogenibium azorense, truncated form (Sulfurihydrogenibium azorense) (UniProt C1DTU5)
Experiment: SEC; Superdex 75 (26/60), 20 mM Tris pH 7.5, 150 mM NaCl, after His-tag affinity chromatography; both purified

binding: no binding
B1: CA6-SazCAtrunc, carbonic anhydrase from Sulfurihydrogenibium azorense, truncated form (enzyme, UniProt C1DTU5 27-254)
chain: AEVHHWSYEGENGPENWAKLNPEYFWCNLKNQSPVDISDNYKVHAKLEKLHINYNKAVNPEIVNNGHTIQVNVLEDFKLNIKGKEYHLKQFHFHAPSEHTVNGKYYPLEMHLVHKDKDGNIAVIGVFFKEGKANPELDKVFKNALKEEGSKVFDGSININALLPPVKNYYTYSGSLTTPPCTEGVLWIVLKQPITASKQQIELFKSIMKHNNNRPTQPINSRYILESN
